Laboratory results: PubChem BioAssay AID1671195 (Yale University, 2021)

Assay: 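Knockdowns that increase or decrease uptake of fluorescent LDL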 (primary screen)
System: human Huh7 hepatoma cells
Knock-down reagent: siRNA pool against human genes, 18 nM
Timing: about 2 to 2.5 days of knockdown, then 8 h LDL uptake
Conditions: DiI-labelled LDL at 30 µg/ml for 8 h, in lipoprotein-deficient serum medium
Read-out: 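Fluorescent LDL signal imaged in cells, scaled to the plate median, robust z-score for each replicate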
Scale: robust z-score: higher = more LDL uptake after knockdown
Active means: 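Active when two or more replicates show a robust z-score above 2 or below -2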
This is one part, drawn at random, of about 22,000 reagents. About 1,510 of all reagents (6.9%) count as active. 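Active includes knockdowns raising or lowering LDL uptake; positive z-scores mean more uptake, negative mean less.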 A number with no mark means an inactive call. Reagents against one gene are numbered here. No sequences are given here.

| gene knocked down | pool no. | robust z-score, replicate 1 | robust z-score, replicate 2 | robust z-score, replicate 3 |
| --- | --- | --- | --- | --- |
| TAL2 | 1 | -0.0863 | -0.329 | -0.434 |
| LOC391444 (retired record) | 1 | 0.517 | 0.669 | 0.531 |
| SRGAP3 | 1 | -0.261 | 0.152 | -1.35 |
| IFT38 | 1 | 2.26 | -0.94 | 1.03 |
| GSDMA | 1 | -2.08 (active) | -1.98 | -1.99 |
| EPYC | 1 | 2.06 | -0.942 | 0.543 |
| MYO7B | 1 | 0.469 | 0.321 | 0.181 |
| C1orf146 | 1 | 0.216 | 0.14 | 0.0344 |
| GALNT5 | 1 | -1.48 | 0.262 | -1.5 |
| VPS54 | 1 | 0.813 | 0.346 | 0.751 |
| LGI3 | 1 | 0.836 | 1.17 | 0.685 |
| SETDB1 | 1 | 1.33 | 0.734 | 0.274 |
| ANKRD13A | 1 | 0.232 | 0.789 | 0.574 |
| RAB26 | 1 | -1.89 | -1.83 | -1.41 |
| TTYH1 | 1 | -0.902 | -0.551 | -0.399 |
| CLMB | 1 | -1.05 | -0.735 | -1.47 |
| IDO2 | 1 | -0.594 | -0.555 | -0.619 |
| WT1 | 1 | -0.0643 | -0.232 | -0.423 |
| WNT8A | 1 | 0.0942 | 3.04 | 1.88 |
| SYMPK | 1 | 1.39 | 1.22 | 1.48 |
| CCDC87 | 1 | -1.11 | 0.888 | -1.65 |
| NPVF | 1 | -0.706 | 0.204 | 0.154 |
| VAMP7 | 1 | 0.149 | 0.123 | 0.608 |
| RP9 | 1 | -0.788 | -1 | -0.837 |
| CA12 | 1 | 1.59 | 1.48 | 0.975 |
| FIBCD1 | 1 | 2.3 (active) | 1.94 | 1.51 |
| PRR27 | 1 | -0.45 | 0.0504 | -0.203 |
| SPAG7 | 1 | 0.945 | 0.244 | 0.458 |
| SLC7A1 | 1 | -2.43 (active) | -2.34 | -1.97 |
| LINC00482 | 1 | -0.712 | -0.825 | -1.03 |
| UVRAG | 1 | -2.05 (active) | -1.32 | -1.91 |
| ADGRG5 | 1 | 1.31 | 0.348 | 1.12 |
| LINGO2 | 1 | 0.0233 | -0.108 | -0.449 |
| ZC3H12D | 1 | -0.816 | -0.814 | -0.896 |
| COPS7B | 1 | 0.0186 | -0.576 | 0.342 |
| SLC17A6 | 1 | -0.437 | -0.502 | -1.1 |
| PNPLA7 | 1 | 0.271 | 0.282 | 0.297 |
| LOC440536 (retired record) | 1 | 1.87 | 1.93 | 2.34 |
| EIF5A2 | 1 | 0.54 | -0.121 | 0.138 |
| OR10R2 | 1 | -0.217 | -0.643 | -0.282 |
| RDH12 | 1 | -0.203 | -0.67 | -0.627 |
| CDK20 | 1 | 0.194 | 0.165 | 0.224 |
| PRSS58 | 1 | 0.202 | 0.613 | -0.146 |
| NFE2L1 | 1 | 1.76 | 1.52 | 1.14 |
| WDR53 | 1 | 0.328 | 0.364 | 0.299 |
| TMEM40 | 1 | 0.777 | 1.95 | 0.88 |
| LOC166994 (retired record) | 1 | -0.302 | 0.215 | -0.373 |
| CCN2 | 1 | 0.943 | 0.499 | 1.94 |
| ATP5PB | 1 | 0.474 | 0.504 | 0.468 |
| EHBP1L1 | 1 | 0.379 | 0.254 | 0.551 |
| OR5D14 | 1 | -0.575 | -0.998 | -0.487 |
| MRPL44 | 1 | 1.85 | 2.26 | 1.48 |
| CALB1 | 1 | 0.353 | 0.38 | 0.537 |
| GPR50 | 1 | 5.87 (active) | 3.86 | 4.86 |
| TPCN1 | 1 | -2.23 (active) | -2.73 | -1.94 |
| B3GAT2 | 1 | -1.15 | -0.909 | -1.41 |
| CWC25 | 1 | 0.218 | -0.444 | 0.629 |
| PNLIPRP3 | 1 | -1.24 | -1.71 | -1.26 |
| DPYSL3 | 1 | -0.264 | -0.555 | -0.502 |
| ZCCHC2 | 1 | 0.346 | -0.00894 | -0.00849 |
| ZCCHC2 | 2 | 0.901 | 0.321 | -1.91 |
| LOC388587 (retired record) | 1 | 0.0673 | -0.00507 | 0.383 |
| NPEPPS | 1 | -1.65 | -0.907 | -1.29 |
| CHMP2B | 1 | -1.1 (active) | -2.17 | -2.18 |
| RHAG | 1 | 0.53 | -0.0214 | 0.243 |
| B3GNT4 | 1 | -0.535 | -0.223 | -0.633 |
| MRPL48 | 1 | -0.801 | -0.563 | -0.353 |
| KCNJ2 | 1 | -0.181 | -0.623 | -0.185 |

6 entries already listed, ordered by “robust z-score, replicate 1”, highest first.
| gene knocked down | pool no. | robust z-score, replicate 1 | robust z-score, replicate 2 | robust z-score, replicate 3 |
| --- | --- | --- | --- | --- |
| ZCCHC2 | 2 | 0.901 | 0.321 | -1.91 |
| ZCCHC2 | 1 | 0.346 | -0.00894 | -0.00849 |
| CWC25 | 1 | 0.218 | -0.444 | 0.629 |
| LOC388587 (retired record) | 1 | 0.0673 | -0.00507 | 0.383 |
| DPYSL3 | 1 | -0.264 | -0.555 | -0.502 |
| PNLIPRP3 | 1 | -1.24 | -1.71 | -1.26 |
